Some of the results follow.

By UniProt entry, the sequences of proteins in these tests, tags left out. Where a name states a change or a piece, a line headed by the entry shows the natural chain unless it says otherwise.
UniProt Q3SXY8: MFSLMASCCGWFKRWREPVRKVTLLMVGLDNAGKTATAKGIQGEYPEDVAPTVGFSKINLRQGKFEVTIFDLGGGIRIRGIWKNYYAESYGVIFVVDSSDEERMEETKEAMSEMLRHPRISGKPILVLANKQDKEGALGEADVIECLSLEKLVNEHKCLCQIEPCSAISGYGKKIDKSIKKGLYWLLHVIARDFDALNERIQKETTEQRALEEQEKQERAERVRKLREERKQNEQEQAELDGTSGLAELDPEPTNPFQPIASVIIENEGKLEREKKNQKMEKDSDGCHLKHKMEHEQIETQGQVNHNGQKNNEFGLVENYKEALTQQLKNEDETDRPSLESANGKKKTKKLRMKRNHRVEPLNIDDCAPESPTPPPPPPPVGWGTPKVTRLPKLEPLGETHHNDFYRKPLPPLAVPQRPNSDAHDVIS
UniProt Q9H0Y0: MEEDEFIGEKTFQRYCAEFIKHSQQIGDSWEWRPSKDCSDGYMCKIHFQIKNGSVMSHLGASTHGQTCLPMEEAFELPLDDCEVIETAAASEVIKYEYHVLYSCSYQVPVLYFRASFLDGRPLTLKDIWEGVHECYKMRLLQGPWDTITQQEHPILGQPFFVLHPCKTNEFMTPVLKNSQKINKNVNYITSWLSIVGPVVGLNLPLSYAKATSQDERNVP
UniProt P18847: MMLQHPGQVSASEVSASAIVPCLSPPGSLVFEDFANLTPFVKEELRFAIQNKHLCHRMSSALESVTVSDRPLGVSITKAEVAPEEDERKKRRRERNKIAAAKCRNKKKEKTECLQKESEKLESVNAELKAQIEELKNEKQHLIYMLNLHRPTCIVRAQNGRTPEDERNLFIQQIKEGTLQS
UniProt Q96KC2: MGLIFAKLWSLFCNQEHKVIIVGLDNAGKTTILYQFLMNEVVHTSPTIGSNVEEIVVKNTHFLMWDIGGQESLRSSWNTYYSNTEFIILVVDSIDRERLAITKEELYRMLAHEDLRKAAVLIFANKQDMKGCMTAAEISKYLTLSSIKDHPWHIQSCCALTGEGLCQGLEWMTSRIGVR
UniProt Q8IXJ9: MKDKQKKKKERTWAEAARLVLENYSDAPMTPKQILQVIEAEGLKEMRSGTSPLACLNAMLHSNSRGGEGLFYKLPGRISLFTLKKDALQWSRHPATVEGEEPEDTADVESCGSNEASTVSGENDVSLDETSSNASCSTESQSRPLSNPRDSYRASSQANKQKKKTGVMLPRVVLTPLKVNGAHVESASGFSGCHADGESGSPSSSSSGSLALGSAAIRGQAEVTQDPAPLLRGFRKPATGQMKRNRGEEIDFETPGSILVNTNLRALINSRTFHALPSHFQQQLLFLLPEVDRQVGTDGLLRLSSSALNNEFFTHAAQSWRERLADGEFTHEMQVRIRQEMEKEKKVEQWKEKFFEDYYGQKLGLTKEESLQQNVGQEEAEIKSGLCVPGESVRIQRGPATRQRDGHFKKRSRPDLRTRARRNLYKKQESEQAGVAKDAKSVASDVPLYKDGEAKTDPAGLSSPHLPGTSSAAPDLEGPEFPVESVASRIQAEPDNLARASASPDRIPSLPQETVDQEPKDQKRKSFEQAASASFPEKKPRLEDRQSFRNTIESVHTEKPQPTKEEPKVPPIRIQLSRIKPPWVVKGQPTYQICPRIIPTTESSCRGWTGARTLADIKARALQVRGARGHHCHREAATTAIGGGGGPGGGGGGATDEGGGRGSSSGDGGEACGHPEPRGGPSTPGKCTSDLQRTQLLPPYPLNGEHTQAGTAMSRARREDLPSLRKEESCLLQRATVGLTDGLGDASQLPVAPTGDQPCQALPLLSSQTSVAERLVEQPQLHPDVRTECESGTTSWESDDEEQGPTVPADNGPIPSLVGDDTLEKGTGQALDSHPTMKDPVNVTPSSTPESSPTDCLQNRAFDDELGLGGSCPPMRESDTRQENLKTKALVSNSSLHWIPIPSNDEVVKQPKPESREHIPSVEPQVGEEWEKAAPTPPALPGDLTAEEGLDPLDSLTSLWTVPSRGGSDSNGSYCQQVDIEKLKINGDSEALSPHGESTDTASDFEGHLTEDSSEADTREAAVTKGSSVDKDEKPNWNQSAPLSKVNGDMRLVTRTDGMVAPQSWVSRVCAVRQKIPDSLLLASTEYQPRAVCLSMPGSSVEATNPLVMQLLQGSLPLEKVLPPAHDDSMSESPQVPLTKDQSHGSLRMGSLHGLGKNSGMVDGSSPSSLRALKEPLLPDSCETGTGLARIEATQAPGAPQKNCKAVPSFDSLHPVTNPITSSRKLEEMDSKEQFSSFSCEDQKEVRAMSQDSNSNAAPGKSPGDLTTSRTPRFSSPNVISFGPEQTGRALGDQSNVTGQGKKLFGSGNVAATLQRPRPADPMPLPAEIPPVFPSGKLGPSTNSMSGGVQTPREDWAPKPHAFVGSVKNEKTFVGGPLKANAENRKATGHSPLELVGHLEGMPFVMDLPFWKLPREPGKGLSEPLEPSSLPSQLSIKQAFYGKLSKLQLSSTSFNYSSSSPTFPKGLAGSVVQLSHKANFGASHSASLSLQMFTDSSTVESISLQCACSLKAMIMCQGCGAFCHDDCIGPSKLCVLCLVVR
UniProt Q9Y689: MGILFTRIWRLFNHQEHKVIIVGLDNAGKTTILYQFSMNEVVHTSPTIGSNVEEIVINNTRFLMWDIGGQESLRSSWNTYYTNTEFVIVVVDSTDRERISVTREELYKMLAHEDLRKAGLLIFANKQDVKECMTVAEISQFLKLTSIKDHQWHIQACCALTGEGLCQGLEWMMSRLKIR
UniProt Q6ZNE5, whole entry, looked up: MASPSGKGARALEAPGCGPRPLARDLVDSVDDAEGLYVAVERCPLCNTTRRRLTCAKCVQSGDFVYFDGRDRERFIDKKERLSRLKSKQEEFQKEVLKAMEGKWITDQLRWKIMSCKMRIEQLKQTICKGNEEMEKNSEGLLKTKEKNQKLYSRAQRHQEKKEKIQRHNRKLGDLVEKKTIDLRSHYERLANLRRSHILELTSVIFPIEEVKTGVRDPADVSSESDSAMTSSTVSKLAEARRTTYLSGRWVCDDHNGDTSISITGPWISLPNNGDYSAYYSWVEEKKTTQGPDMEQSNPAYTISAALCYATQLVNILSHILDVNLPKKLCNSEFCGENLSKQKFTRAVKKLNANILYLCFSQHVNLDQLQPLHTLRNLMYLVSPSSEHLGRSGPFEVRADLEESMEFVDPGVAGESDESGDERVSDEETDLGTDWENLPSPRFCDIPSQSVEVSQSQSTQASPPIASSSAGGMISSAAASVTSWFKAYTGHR
UniProt P98194: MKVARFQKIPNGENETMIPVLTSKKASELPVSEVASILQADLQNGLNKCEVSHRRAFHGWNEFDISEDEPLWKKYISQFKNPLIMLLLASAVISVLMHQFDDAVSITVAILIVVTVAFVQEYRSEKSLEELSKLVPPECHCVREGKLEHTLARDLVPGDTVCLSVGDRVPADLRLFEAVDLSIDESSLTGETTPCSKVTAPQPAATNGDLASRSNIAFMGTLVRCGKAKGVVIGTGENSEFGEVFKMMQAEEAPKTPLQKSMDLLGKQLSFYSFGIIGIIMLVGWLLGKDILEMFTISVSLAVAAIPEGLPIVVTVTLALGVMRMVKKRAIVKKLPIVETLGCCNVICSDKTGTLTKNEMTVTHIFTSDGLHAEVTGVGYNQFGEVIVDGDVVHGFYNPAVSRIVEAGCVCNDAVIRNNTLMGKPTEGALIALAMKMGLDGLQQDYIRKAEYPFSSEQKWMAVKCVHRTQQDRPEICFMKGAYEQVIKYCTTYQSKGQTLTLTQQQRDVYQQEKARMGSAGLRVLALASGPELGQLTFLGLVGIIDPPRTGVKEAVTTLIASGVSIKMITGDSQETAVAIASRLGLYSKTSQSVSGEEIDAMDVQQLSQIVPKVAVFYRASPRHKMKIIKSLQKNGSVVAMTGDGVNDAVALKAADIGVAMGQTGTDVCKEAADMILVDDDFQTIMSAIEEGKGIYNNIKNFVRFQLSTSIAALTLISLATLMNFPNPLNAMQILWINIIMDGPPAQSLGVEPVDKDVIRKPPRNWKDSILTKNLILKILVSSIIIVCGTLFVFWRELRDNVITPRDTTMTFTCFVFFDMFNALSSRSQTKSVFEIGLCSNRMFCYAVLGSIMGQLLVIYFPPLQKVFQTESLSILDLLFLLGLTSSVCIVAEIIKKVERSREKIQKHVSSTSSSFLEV
UniProt P00966: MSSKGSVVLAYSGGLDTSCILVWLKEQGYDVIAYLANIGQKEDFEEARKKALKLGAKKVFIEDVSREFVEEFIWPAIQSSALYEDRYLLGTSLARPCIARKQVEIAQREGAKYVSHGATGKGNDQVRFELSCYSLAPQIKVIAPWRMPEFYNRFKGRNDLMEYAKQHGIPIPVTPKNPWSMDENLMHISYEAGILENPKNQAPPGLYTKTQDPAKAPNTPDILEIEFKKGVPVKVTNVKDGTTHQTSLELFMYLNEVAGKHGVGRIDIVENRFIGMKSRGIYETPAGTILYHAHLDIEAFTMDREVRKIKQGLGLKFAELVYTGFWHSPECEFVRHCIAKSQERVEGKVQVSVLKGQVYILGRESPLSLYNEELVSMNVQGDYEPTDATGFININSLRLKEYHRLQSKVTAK
UniProt Q2TAZ0: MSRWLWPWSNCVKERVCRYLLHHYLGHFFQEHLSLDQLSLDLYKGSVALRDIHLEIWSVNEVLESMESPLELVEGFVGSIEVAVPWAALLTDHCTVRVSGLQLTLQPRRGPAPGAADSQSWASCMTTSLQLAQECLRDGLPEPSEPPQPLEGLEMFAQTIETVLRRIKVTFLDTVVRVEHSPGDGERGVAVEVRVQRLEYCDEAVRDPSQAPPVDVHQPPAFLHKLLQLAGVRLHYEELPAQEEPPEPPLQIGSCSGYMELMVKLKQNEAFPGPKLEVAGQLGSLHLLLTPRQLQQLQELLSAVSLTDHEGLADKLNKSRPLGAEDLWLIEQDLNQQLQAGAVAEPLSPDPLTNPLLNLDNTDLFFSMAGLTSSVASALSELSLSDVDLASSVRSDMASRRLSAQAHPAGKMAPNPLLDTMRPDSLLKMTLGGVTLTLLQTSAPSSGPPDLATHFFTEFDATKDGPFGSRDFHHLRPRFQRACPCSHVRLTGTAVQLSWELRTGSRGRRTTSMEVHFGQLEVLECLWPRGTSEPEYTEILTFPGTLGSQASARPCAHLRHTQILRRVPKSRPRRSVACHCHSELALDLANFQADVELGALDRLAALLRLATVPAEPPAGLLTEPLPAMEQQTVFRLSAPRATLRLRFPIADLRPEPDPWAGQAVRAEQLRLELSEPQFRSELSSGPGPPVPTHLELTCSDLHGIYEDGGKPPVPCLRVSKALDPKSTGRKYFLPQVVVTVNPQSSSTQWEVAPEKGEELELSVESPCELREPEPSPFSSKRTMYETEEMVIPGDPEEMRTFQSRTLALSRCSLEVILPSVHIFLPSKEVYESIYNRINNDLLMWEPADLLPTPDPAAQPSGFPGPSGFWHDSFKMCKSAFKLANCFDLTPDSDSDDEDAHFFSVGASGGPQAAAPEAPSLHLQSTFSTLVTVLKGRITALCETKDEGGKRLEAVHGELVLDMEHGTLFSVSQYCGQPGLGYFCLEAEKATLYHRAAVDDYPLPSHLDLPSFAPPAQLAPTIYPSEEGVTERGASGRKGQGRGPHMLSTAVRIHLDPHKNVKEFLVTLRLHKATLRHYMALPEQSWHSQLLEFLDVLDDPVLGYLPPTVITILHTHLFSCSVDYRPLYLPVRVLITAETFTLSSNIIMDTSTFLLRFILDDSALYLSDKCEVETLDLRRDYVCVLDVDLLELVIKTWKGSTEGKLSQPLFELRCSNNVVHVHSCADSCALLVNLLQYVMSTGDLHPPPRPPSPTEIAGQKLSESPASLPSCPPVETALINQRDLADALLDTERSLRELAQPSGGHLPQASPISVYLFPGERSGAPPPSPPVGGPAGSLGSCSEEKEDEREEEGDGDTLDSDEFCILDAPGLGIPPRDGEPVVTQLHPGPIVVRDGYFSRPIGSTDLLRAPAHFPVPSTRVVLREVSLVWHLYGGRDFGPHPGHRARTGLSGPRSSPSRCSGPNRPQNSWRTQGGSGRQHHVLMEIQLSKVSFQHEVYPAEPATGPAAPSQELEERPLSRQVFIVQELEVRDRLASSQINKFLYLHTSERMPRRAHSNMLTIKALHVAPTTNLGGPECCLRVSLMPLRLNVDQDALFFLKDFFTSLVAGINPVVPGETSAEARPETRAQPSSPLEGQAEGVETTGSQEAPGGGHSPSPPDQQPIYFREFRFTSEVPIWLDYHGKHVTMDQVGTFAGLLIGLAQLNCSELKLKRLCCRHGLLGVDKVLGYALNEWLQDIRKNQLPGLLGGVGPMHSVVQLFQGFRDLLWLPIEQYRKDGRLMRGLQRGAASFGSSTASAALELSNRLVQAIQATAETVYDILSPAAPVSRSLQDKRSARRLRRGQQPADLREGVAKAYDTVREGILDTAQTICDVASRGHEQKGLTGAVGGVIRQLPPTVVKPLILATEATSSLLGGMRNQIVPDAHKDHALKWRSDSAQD

Compound in one test: CC[C@H](C)[C@@H](C(=O)N[C@@H]([C@@H](C)O)C(=O)N[C@@H](CC(C)C)C(=O)[C@]1(CO1)C)NC(=O)[C@H]([C@@H](C)CC)N(C)C(=O)C [epoxomicin]
The test can be described thus: log2 fold change, soluble protein after heating vs DMSO (PISA); higher = thermal stabilisation; K562 cells, 10 uM, 30 min; active = over 0.2 and 3.5 SD of the protein, either way, in both replicates (recomputed). An outline of the steps:
(§1)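 Aliquots of K562 cells (2×10^6 cells/mL) treated with 10 μM compound for 30 min were heated for 3 min over 48°C-58°C. After pooling and extraction in PBS with 0.5% NP-40 at 4°C, soluble protein from a 21,000xg, 90 min spin was quantified by TMTpro 16plex LC-MS/MS with channel sums equalised. Thermal stability is expressed against control samples, from duplicates, as a log2 fold change.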
As to ATP5F1B (UniProt H0YI37), the log2 fold change was inactive: -0.36.

As for ARL13B (UniProt Q3SXY8), the log2 fold change is inactive: 0.069.

Consider ATF1 (UniProt P18846), for which the log2 fold change was inactive: 0.17.

Compound in a further test: CCn1c(C(=O)N(C2CC2)C2CC2)cc2c3c(ncn3C)c(Nc3cc(C)n(C)n3)nc21
Described as above. An outline of the steps:
as §1
ATP6V0C (UniProt P27449): the log2 fold change was inactive: 0.038.

Regarding ATPSCKMT (UniProt Q6P4H8), the log2 fold change was inactive: 0.018.

In the case of ATP1B2 (UniProt P14415), the log2 fold change is inactive: 0.035.

Take ARSK (UniProt Q6UWY0): the log2 fold change is inactive: 0.105.

Consider ATG10 (UniProt Q9H0Y0), for which the log2 fold change was inactive: -0.087.

In the case of ATF3 (UniProt P18847), the log2 fold change was inactive: -0.111.

ARL5B (UniProt Q96KC2): the log2 fold change was inactive: 0.006.

With ARPIN isoform 2 (UniProt Q7Z6K5), the log2 fold change is inactive: -0.045.

ARSA (UniProt P15289): the log2 fold change is inactive: -0.134.

Regarding ASXL1 (UniProt Q8IXJ9), the log2 fold change was inactive: -0.094.

On to ARL5A (UniProt Q9Y689), for which the log2 fold change is inactive: 0.051.

With ATF7IP isoform 4 (UniProt Q6VMQ6), the log2 fold change is inactive: -0.02.

For the target ATP1B1 (UniProt P05026), the log2 fold change was inactive: 0.019.

Turning to ATG14 (UniProt Q6ZNE5), the log2 fold change is inactive: -0.04.

Consider ASCC2 (UniProt Q9H1I8), for which the log2 fold change was inactive: -0.049.

As to ATP2C1 isoform 3 (UniProt P98194), the log2 fold change was inactive: 0.146.

As to ASXL2 (UniProt Q76L83), the log2 fold change was inactive: 0.169.

For ATG12 (UniProt O94817), the log2 fold change is inactive: 0.024.

As to ATP2B2 (UniProt Q01814), the log2 fold change was inactive: -0.118.

As for ARRB1 isoform 2 (UniProt P49407), the log2 fold change is inactive: 0.026.

As for ASF1B (UniProt Q9NVP2), the log2 fold change was inactive: -0.007.

With ARL13B (UniProt Q3SXY8), the log2 fold change is inactive: -0.067.

Compound in a further test: CCn1cc(-c2ccnc3[nH]c(-c4cccc(CN(C)C)c4)cc23)c(-c2ccc(NC(=O)N(C)C)cc2)n1
The description is as above. The method in brief:
as §1
In the case of ATP6V0C (UniProt P27449), the log2 fold change was inactive: -0.126.

As to ATPSCKMT (UniProt Q6P4H8), the log2 fold change is inactive: 0.006.

Regarding ATP1B2 (UniProt P14415), the log2 fold change was inactive: -0.002.

As to ATL2 (UniProt Q8NHH9), the log2 fold change is inactive: -0.127.

With ATG10 (UniProt Q9H0Y0), the log2 fold change is inactive: -0.01.

In the case of ASB6 (UniProt Q9NWX5), the log2 fold change was inactive: -0.076.

Take ARL5B (UniProt Q96KC2): the log2 fold change is inactive: 0.029.

Consider ARPIN isoform 2 (UniProt Q7Z6K5), for which the log2 fold change is inactive: -0.053.

In the case of ARSA (UniProt P15289), the log2 fold change was inactive: -0.007.

As for ARRDC1 (UniProt Q8N5I2), the log2 fold change was inactive: 0.

With ARL5A (UniProt Q9Y689), the log2 fold change was inactive: 0.115.

In the case of ATF7IP isoform 4 (UniProt Q6VMQ6), the log2 fold change was inactive: 0.024.

Regarding ATP1B1 (UniProt P05026), the log2 fold change was inactive: -0.067.

ASS1 (UniProt P00966): the log2 fold change is inactive: 0.04.

As for ATG12 (UniProt O94817), the log2 fold change was inactive: -0.139.

On to ATP2B2 (UniProt Q01814), for which the log2 fold change was inactive: -0.151.

On to ARRB1 isoform 2 (UniProt P49407), for which the log2 fold change is inactive: -0.09.

As for ASF1B (UniProt Q9NVP2), the log2 fold change is inactive: 0.081.

For ATG2A (UniProt Q2TAZ0), the log2 fold change is inactive: 0.14.

As to ATP5F1B (UniProt H0YI37), the log2 fold change is inactive: 0.044.

For ARL13B (UniProt Q3SXY8), the log2 fold change is inactive: -0.091.

In the case of ATF1 (UniProt P18846), the log2 fold change is inactive: 0.035.

The record behind these values is the supplement of paper PMC10849652.
